# According to PubChem BioAssay (Tox21):
# By UniProt entry, the sequences of proteins in these tests, tags left out. Where a name states a change or a piece, a line headed by the entry shows the natural chain unless it says otherwise.
# UniProt P11511: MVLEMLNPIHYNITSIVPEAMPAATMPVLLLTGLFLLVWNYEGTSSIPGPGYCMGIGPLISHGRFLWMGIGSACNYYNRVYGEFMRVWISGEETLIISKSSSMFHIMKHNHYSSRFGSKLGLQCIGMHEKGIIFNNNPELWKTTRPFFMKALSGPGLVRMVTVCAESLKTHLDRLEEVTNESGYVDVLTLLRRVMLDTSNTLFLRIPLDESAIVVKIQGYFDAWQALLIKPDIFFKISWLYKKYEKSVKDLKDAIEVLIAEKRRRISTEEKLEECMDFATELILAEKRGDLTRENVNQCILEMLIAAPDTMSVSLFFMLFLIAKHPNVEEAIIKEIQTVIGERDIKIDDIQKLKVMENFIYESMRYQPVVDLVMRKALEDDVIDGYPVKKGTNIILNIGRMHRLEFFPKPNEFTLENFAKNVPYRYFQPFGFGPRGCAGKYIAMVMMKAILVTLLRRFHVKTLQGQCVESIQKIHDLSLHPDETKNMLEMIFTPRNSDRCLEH
# What follows is the remainder of the data, with few or none of the hits. Inconclusive results are not listed. Active and inactive are the calls of the source. The call rests on the fitted dose curve; in most records, active means well fitted inhibition curve with a large enough effect in the repeat runs; inconclusive means weak or mixed curves; inactive means no such curve, though single readings can be large or run the other way.
# Biological target: Aromatase (Homo sapiens) (UniProt P11511)
# Assay: qHTS assay to identify aromatase inhibitors (AID 743083); further: nearly all actives have a fitted effect of over 55% in size
# Settings: MCF-7 aro ERE, testosterone-driven ERE luciferase, 24 h
# On the % scale 0 is the no-effect control and ±100 the full control effect.
smiles,measurement,setting,value
CN1C(=O)CN=C(c2ccccc2)c2cc(Cl)ccc21,"activity, negative = inhibition",at 70.3 µM (top of the series),inactive: 37.7%
same,"activity, negative = inhibition",at 95 µM (top of the series),inactive: 20.6%
